The text below walks through data of article PMC5686067.

Assay [1] has as its target T1, sNlpI (soluble NlpI without its lipoprotein signal peptide) (E. coli) (UniProt P0AFB1).
T1 sequence: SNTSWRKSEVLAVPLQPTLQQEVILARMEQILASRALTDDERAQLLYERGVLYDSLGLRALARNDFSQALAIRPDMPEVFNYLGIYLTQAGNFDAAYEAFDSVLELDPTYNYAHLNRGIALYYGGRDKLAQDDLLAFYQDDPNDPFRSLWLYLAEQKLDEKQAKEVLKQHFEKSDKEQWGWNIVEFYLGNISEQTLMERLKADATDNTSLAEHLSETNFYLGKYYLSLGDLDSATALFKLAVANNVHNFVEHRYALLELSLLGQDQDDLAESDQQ
Nature of the assay: pull-down; Ni-NTA pull-down; cleared lysates of His6-tagged sNlpI (WT or mutants) mixed with lysate of untagged Prc-K477A; 50 mM Tris-HCl pH 8.0, 200 mM NaCl; read by SDS-PAGE.

The target of assay [2] is T1, sNlpI (soluble NlpI without its lipoprotein signal peptide) (E. coli). Nature of the assay: crystal structure; sNlpI with Prc-K477A, complex purified by Superdex 200; 0.2 M ammonium citrate pH 7.4, 14% PEG3350, 16 °C; 2.30 Å; both purified.

Results are given in words; binding and its absence hold for the method and conditions named. A result given as binding can be weak or reduced; the word gives no strength. For some assays here: Binding seen in cells or lysates may run through a third protein.

As for “Prc-K477A with no tag (E. coli) (enzyme)”, in assay [1], the binding entry is reported as “binds”. Consider “Prc-K477A (catalytically inactive, for crystallization) (E. coli) (enzyme)”, for which the binding result in assay [2] is recorded as “binds”.
